This is a selection; strong and weak results do not stand in their true shares.
compound: COC(=O)C#Cc1ccccc1 [methyl 3-phenylpropiolate]; assay: log2 ratio of iodoacetamide-alkyne labeling of the cysteine site, DMSO over compound (competition); higher = stronger covalent engagement of the cysteine by the compound, active = 1 or more; conditions: 500 µM; treatment time 1 h; system: HEK293T cell lysate
Summary of the method: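 Reporter intensities give each cysteine's log2 competition ratio as the mean of control channels over the mean of compound channels. The samples were HEK293T lysate (2 mg/mL) given vehicle or electrophile (500 µM, 1 h, ambient temperature), then iodoacetamide alkyne (1 h), followed by click coupling to sCIP-TMT reagents, pooling, trypsin digestion overnight at 37 °C, streptavidin enrichment, acid elution, Orbitrap Eclipse LC-MS/MS with FAIMS and FragPipe quantification. Duplicate channels and three replicates were run, and cysteines quantified in only one replicate were discarded.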

Amino acid sequences for entries named in this document (tags omitted). A change or cut given only in a name is not applied to a line headed by its entry.
UniProt P31930: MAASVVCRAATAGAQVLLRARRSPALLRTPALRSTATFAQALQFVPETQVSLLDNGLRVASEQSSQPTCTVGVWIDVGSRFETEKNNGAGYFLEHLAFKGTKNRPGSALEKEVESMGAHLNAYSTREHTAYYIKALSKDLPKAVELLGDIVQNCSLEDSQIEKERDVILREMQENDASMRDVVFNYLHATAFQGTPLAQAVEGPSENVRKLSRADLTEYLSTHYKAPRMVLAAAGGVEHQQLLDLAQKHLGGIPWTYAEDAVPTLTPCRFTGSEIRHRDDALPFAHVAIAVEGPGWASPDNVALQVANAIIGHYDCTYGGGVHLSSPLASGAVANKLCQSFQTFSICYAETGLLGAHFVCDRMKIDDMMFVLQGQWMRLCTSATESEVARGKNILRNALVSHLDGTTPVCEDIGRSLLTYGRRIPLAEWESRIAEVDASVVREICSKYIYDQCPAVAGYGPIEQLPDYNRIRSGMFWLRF
UniProt P34896: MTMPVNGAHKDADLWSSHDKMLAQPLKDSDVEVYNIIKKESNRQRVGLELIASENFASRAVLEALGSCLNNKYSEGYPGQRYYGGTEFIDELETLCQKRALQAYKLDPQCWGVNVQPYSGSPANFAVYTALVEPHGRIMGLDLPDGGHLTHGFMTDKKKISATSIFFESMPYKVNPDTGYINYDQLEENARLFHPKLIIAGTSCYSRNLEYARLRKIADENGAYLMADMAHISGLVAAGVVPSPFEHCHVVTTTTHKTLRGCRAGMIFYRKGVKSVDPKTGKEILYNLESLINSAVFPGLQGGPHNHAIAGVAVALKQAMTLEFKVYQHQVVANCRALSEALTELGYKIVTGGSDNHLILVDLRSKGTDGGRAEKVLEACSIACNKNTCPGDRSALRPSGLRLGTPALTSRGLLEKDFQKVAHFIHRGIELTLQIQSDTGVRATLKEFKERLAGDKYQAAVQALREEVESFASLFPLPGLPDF
UniProt P30153, whole entry, looked up: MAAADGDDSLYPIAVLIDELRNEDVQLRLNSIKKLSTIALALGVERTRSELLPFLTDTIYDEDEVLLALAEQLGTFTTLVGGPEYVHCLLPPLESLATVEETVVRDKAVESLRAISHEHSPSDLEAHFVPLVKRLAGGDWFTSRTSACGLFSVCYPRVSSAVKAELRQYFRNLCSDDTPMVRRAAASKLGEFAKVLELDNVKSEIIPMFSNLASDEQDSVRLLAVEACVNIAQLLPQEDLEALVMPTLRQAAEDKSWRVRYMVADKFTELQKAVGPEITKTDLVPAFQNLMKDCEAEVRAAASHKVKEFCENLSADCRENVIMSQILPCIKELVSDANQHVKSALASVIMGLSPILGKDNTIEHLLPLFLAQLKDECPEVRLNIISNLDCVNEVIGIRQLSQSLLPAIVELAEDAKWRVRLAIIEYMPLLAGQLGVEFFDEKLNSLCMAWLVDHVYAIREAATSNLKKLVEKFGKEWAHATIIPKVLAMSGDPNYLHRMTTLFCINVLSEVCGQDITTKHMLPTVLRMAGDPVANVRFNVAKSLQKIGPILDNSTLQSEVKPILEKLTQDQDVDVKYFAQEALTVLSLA
UniProt P36776: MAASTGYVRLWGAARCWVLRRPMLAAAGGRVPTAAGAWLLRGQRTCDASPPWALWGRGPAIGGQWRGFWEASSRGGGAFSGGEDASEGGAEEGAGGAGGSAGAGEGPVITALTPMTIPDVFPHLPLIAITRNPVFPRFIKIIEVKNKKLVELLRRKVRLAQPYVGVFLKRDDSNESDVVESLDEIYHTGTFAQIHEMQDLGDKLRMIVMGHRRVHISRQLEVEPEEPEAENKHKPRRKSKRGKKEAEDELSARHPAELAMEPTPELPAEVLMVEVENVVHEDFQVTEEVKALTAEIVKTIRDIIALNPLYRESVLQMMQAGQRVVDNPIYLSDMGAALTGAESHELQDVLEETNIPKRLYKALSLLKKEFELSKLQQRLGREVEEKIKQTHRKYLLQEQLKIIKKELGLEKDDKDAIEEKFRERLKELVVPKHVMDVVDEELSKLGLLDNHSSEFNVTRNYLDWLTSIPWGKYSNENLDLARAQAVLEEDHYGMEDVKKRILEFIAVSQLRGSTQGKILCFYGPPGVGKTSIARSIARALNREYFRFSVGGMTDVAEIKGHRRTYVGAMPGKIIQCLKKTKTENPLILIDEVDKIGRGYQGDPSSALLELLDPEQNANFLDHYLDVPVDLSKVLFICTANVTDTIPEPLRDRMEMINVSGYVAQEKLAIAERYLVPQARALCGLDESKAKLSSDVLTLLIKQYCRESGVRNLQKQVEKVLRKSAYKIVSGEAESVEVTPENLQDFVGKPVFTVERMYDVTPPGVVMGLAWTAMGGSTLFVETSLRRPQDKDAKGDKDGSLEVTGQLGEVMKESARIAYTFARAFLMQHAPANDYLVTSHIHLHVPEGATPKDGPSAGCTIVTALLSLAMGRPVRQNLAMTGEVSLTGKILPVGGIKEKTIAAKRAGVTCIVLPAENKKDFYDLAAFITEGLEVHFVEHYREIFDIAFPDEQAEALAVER
UniProt P42126: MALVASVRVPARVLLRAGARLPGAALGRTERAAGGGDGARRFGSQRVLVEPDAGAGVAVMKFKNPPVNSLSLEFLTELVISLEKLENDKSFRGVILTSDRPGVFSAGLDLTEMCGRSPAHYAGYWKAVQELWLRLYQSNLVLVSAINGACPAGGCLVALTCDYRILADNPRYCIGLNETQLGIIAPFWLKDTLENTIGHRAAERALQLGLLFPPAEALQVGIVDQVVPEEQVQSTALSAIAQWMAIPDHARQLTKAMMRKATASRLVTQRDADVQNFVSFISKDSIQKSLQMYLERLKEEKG
UniProt P34932: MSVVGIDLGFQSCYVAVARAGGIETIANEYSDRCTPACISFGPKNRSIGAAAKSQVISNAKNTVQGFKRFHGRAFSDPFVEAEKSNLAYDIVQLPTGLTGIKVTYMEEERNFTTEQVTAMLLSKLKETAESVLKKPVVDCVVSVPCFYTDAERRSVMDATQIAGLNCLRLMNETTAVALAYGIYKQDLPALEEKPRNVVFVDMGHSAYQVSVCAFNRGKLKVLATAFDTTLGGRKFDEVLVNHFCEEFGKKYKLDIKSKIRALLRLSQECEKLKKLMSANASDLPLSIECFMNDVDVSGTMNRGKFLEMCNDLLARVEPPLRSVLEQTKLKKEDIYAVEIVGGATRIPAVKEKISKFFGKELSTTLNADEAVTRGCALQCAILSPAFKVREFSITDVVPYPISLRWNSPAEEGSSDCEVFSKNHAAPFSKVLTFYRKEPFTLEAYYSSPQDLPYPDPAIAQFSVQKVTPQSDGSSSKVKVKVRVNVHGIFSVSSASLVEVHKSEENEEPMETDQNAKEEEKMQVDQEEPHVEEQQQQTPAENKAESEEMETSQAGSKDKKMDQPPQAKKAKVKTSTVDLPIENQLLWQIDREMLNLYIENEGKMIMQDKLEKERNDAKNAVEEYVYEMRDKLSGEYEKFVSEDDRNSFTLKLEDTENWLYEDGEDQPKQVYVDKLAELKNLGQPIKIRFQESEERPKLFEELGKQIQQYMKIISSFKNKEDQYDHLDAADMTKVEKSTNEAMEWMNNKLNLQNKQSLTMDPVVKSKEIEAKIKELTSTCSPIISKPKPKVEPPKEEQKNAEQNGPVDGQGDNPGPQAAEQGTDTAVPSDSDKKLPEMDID
UniProt P37802: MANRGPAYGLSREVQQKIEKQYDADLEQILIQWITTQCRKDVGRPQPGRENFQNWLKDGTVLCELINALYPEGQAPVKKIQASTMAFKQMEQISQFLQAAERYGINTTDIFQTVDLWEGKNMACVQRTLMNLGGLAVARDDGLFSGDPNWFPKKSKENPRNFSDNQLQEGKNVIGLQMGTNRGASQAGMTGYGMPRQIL
UniProt P35998: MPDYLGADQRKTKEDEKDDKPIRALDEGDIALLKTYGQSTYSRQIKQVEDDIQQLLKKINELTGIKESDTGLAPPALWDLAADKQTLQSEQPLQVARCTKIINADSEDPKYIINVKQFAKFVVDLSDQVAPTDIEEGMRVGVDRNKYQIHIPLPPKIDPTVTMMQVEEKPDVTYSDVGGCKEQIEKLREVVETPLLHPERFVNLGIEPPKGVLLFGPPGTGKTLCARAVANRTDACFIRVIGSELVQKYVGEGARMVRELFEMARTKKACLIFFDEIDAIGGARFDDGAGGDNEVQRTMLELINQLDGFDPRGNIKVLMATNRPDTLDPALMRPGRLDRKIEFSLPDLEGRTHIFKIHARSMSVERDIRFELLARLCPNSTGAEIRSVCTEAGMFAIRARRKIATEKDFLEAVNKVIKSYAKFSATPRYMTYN
UniProt P42224: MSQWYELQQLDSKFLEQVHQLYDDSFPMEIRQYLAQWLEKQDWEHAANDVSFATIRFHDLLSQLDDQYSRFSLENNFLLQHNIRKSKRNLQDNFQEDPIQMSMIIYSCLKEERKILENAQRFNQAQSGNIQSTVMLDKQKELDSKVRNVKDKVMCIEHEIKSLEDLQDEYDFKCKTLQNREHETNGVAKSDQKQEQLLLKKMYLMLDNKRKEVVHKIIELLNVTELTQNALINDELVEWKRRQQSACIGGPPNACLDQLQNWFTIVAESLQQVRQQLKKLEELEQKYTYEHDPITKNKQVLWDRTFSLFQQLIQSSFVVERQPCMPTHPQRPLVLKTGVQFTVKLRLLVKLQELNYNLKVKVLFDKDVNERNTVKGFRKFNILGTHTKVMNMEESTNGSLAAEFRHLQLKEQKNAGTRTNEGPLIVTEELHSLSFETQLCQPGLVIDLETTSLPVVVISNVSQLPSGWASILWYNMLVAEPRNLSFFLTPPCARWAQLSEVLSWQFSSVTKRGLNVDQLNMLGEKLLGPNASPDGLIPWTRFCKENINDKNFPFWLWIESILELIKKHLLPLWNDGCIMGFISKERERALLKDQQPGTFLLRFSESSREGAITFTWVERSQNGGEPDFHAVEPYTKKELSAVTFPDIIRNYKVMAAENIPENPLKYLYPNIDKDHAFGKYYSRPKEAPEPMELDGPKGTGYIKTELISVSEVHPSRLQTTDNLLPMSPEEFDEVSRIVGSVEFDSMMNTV
UniProt P30519: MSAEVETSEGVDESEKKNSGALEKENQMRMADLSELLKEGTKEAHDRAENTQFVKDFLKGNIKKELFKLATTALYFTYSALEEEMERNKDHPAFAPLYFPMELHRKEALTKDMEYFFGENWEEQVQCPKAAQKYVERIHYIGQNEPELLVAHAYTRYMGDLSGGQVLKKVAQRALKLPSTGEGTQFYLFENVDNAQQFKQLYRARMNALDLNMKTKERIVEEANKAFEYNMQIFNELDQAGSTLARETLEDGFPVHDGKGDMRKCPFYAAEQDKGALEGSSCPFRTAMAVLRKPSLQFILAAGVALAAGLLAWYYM
UniProt P30837: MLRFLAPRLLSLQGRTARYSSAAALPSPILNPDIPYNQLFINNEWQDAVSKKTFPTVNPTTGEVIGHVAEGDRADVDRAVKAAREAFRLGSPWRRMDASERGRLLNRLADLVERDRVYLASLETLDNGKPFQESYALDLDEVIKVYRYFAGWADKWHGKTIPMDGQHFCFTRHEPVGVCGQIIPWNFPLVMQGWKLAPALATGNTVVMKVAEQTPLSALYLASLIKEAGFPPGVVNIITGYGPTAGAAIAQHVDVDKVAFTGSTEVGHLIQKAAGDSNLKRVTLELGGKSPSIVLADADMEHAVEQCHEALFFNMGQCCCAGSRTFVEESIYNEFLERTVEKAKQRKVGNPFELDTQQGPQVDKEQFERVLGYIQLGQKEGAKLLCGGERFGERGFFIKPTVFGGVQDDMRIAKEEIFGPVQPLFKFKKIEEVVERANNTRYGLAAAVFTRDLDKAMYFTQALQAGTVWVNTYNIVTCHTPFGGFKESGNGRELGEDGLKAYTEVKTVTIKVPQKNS
UniProt P31948, whole entry, looked up: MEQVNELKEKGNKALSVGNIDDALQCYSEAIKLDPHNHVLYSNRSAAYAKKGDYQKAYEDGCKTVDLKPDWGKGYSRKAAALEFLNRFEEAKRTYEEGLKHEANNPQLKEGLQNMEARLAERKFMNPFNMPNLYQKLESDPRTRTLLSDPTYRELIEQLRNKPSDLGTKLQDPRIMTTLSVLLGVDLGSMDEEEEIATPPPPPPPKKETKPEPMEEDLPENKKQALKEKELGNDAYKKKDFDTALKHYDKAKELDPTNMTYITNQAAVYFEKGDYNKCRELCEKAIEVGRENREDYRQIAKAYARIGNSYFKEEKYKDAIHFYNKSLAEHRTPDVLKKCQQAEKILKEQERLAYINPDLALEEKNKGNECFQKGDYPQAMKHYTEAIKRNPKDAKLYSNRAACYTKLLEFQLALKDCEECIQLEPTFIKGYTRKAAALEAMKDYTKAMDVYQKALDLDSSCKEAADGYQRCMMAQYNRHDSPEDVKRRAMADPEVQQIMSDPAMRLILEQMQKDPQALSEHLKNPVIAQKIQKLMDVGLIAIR

log2 ratio of iodoacetamide-alkyne labeling, inactive:
NCAPD3 C1456 (UniProt P42695) 0.397
UQCRC1 C154 (UniProt P31930) 0.369
SHMT1 C96 (UniProt P34896) 0.0443
CAP2 C32 (UniProt P40123) 0.397
PPP2R1A C390 (UniProt P30153) 0.254
UniProt P36954_C52 0.245
UniProt P41214_C489 0.263
MYH9 C91 (UniProt P35579) -0.0505
LONP1 C637 (UniProt P36776) 0.394
NCAPD3 C1293 (UniProt P42695) 0.714
UniProt P42126_C114 -0.0618
HSPA4 C34 (UniProt P34932) 0.0138
TAGLN2 C63 (UniProt P37802) -0.0663
MATR3 C563 (UniProt P43243) 0.00502
MYH9 C896 (UniProt P35579) 0.297
HSPA4 C146 (UniProt P34932) 0.0402
PSMC2 C389 (UniProt P35998) 0.151
STAT1 C174 (UniProt P42224) 0.106
HMOX2 C127 (UniProt P30519) 0.321
IARS C350 (UniProt P41252) 0.0304
ALDH1B1 C179 (UniProt P30837) 0.211
STIP1 C417 (UniProt P31948) -0.182

A section from the list above, as a working copy:
log2 ratio of iodoacetamide-alkyne labeling, inactive:
SHMT1 C96 (UniProt P34896) 0.0443
CAP2 C32 (UniProt P40123) 0.397
PPP2R1A C390 (UniProt P30153) 0.254
UniProt P36954_C52 0.245

Source: the supplement of paper PMC11006884
